Source: patent US20180326084A1
These are yes or no findings as the source states them, for the method shown. Some binding calls cover weakened binding; strength is not graded here.

Chains of the proteins cited; added tags and fusions are not shown. Lines headed by an entry give the natural chain unless they say otherwise; changes in a name come on top. Residues count along the entry.
UniProt P30530: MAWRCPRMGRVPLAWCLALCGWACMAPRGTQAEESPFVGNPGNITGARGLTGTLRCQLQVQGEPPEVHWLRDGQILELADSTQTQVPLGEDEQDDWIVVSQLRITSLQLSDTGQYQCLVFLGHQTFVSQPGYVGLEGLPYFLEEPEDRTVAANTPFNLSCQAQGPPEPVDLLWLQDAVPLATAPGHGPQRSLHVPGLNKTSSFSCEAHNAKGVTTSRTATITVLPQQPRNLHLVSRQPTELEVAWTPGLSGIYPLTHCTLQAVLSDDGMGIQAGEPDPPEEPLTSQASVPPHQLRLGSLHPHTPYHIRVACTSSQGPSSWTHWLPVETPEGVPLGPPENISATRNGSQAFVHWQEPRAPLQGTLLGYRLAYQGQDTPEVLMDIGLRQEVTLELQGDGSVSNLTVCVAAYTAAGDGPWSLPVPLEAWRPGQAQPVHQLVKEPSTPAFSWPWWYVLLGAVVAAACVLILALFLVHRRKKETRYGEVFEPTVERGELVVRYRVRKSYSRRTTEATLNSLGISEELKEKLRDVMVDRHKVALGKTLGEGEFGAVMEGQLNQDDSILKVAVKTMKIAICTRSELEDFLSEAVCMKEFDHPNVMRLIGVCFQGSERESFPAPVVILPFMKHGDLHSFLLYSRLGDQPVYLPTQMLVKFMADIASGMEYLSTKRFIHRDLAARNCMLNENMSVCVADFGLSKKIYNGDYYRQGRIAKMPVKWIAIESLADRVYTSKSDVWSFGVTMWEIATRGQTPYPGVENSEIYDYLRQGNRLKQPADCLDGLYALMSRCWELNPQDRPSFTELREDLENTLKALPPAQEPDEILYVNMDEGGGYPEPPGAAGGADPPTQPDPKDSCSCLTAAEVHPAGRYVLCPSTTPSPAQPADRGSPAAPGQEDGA
UniProt Q06418, residues 41-890: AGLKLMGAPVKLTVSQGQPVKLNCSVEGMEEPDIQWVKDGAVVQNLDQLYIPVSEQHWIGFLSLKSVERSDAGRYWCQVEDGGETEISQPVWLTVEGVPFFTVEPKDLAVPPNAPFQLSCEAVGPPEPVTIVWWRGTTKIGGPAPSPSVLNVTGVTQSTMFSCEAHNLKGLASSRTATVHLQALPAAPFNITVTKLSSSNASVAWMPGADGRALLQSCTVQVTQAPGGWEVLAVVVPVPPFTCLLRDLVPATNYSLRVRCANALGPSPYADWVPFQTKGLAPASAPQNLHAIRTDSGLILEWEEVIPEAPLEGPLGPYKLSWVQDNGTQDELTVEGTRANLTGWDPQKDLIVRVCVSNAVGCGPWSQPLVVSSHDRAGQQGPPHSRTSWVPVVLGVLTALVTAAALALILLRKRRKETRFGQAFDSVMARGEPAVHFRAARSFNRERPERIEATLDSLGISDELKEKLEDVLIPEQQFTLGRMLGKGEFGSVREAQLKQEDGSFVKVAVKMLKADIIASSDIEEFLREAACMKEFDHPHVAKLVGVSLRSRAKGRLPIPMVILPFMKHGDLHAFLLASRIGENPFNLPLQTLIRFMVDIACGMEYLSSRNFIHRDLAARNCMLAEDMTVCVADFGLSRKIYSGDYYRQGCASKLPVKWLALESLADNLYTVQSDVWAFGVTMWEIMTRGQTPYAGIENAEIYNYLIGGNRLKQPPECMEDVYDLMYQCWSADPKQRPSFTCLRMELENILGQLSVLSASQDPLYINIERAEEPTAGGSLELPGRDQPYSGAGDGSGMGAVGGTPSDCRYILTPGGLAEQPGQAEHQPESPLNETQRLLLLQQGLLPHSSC
UniProt Q12866, residues 21-999: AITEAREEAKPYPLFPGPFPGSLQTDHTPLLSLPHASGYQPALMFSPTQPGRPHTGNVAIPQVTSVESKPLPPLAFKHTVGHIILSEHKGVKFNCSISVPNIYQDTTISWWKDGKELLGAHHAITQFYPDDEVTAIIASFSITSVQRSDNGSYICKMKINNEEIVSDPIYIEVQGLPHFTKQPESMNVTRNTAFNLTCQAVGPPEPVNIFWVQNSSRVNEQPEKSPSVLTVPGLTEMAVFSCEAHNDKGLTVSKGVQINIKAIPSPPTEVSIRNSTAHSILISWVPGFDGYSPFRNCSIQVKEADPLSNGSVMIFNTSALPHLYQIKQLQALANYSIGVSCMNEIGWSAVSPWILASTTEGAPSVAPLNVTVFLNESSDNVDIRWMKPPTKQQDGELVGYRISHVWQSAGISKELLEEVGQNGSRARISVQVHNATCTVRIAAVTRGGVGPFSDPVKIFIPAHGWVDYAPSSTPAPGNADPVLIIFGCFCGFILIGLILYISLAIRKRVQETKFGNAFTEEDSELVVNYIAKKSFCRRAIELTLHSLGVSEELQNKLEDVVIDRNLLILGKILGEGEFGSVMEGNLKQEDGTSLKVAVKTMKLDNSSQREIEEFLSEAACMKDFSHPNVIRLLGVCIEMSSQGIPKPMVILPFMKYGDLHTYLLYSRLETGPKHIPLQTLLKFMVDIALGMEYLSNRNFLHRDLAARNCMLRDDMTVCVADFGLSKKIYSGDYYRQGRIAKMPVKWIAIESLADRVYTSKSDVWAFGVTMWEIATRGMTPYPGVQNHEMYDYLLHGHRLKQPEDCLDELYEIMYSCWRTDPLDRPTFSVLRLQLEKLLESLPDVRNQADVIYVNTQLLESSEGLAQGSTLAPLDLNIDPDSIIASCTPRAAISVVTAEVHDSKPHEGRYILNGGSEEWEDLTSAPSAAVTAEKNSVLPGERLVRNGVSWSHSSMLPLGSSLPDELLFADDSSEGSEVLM

What was measured:
[1] = biological target: human AXL (full length) (human) (UniProt P30530); assay: flow cytometry, HEK293T cells transiently transfected with human AXL
[2] = biological target: human TYRO3 (human) (UniProt Q06418); assay: flow cytometry, HEK293F cells transfected with human TYRO3
[3] = biological target: human MER (human) (UniProt Q12866); assay: flow cytometry, HEK293F cells transfected with human MER
[4] = biological target: Homo sapiens AXL-Mus musculus FN2 domain (p33-AXL-mFN2) (human-mouse chimera) (UniProt P30530); assay: flow cytometry, HEK293F cells expressing the chimera
[5] = biological target: Homo sapiens AXL-Mus musculus FN2 domain (p33-AXL-mFN2) (human-mouse chimera) (UniProt P30530); assay: flow cytometry, 1 µg/mL antibody, transfected HEK293F cells

| binding [1] | binding [2] | binding [3] | binding [4] | binding [5] | Binder |
| --- | --- | --- | --- | --- | --- |
| binds | – | – | – | – | IgG1-AXL-726-A-vcDuo3 (antibody, V domains shown, drug-linker on lysine(s); chain and position not given) VH: QVQLQQWGAGLLKPSETLSLTCAIDGGSFSGYYWSWIRQPPGKGLEWIGEISHSGRTNYNPSLKSRVTISIDTSKNQFSLKLSSVAAADTAVYYCARFITMIRGAIITHFDYWGQGALVTVSS VL: DIQMTQSPSSLSASVGDRVTITCRASQGISSWLAWYQQKPEKAPKSLIYAASSLQSGVPSRFSGSGSGTDFTLTISSLQPEDFATYYCQQYHSYPYTFGQGTKLEIK |
| – | no binding (tested: 10 µg/mL) | no binding (tested: 10 µg/mL) | – | – | IgG1-AXL-148 (antibody, V domains shown) VH: EVQLLESGGGLVQPGGSLRLSCAASGFTFSSYAMTWVRQAPGKGLEWVSAISISGGSTFYADSVKGRFTISRDNSKNTLYLQMNSLRAEDTAVYYCRGYSGYVYDAFDFWGQGTMVTVSS VL: DIQMTQSPSSLSASVGDRVTITCRASQGISNWLAWYQQKPEKAPKSLIYAASSLQSGVPSRFSGSGSGTDFTLTISSLQPEDFATYYCQQYNSYPLTFGGGTKVEIK |
| – | no binding (tested: 10 µg/mL) | no binding (tested: 10 µg/mL) | – | – | IgG1-AXL-726-M101L (antibody, V domains shown) VH: QVQLQQWGAGLLKPSETLSLTCAIDGGSFSGYYWSWIRQPPGKGLEWIGEISHSGRTNYNPSLKSRVTISIDTSKNQFSLKLSSVAAADTAVYYCARFITLIRGAIITHFDYWGQGALVTVSS VL: DIQMTQSPSSLSASVGDRVTITCRASQGISSWLAWYQQKPEKAPKSLIYAASSLQSGVPSRFSGSGSGTDFTLTISSLQPEDFATYYCQQYHSYPYTFGQGTKLEIK |
| – | no binding (tested: 10 µg/mL) | no binding (tested: 10 µg/mL) | – | – | IgG1-AXL-511 (antibody, V domains shown) VH: EVQLLESGGGLVQPGGSLRLSCAASGFTFSSYAMNWVRQAPGKGLEWVSGISGSGGHTYHADSVKGRFTISRDNSKNTLYLQMNSLRAEDTAVYYCAKDRYDILTGYYNLLDYWGQGTLVTVSS VL: DIQMTQSPSSLSASVGDRVTITCRASQGISSWLAWYQQKPEEAPKSLIYAASSLQSGVPSRFSGSGSGTDFTLTISSLQPEDFATYYCQQYNSYPLTFGGGAKVEIK |
| – | – | – | no binding (tested: 1 µg/mL) | no binding (tested: 1 µg/mL) | IgG1-AXL-726 (antibody, V domains shown) VH: QVQLQQWGAGLLKPSETLSLTCAIDGGSFSGYYWSWIRQPPGKGLEWIGEISHSGRTNYNPSLKSRVTISIDTSKNQFSLKLSSVAAADTAVYYCARFITMIRGAIITHFDYWGQGALVTVSS VL: DIQMTQSPSSLSASVGDRVTITCRASQGISSWLAWYQQKPEKAPKSLIYAASSLQSGVPSRFSGSGSGTDFTLTISSLQPEDFATYYCQQYHSYPYTFGQGTKLEIK |
| – | no binding (tested: 10 µg/mL) | no binding (tested: 10 µg/mL) | – | – | IgG1-AXL-733 (antibody, V domains shown) VH: QVQLVESGGGVVQPGRSLRLSCAASGFSFSTYAMHWVRQAPGKGLEWVAVISYDGDNKYSADSVKGRFTISRDNSKNTLYLQMNSLRAEDTAVYYCARGRKLGIDAFDIWGQGTMVTVSS VL: AIQLTQSPSSLSASVGDRVTITCRASQGISSALAWYQQKPGKAPKLLIYDASSLESGVPSRFSGSGSGTDFTLTISGLQPEDFATYYCQQFNSYPFTFGPGTKVDIK |
| binds | – | – | – | – | IgG1-AXL-183-A-vcDuo3 (antibody, V domains shown, drug-linker on lysine(s); chain and position not given) VH: QVQLQQWGAGLLKPSETLSLTCAVYGGSFSGYYWSWIRQPPGKGLEWIGEINQSGSTNYNPSLKSRVTISVDTSKNQFSLKLSSVTAADTSVYYCASGNWDHFFDYWGQGTLVTVSS VL: DIQMTQSPSSVSASVGDRVTITCRASQGISSWLAWYQHKPGKAPKLLIYATSSLQSGVTSRFSGSGSGTDFTLTISSLQPEDFATYYCQQAKSFPWTFGQGTKVEIK |
| – | no binding (tested: 10 µg/mL) | no binding (tested: 10 µg/mL) | – | – | IgG1-AXL-183-N52Q (antibody, V domains shown) VH: QVQLQQWGAGLLKPSETLSLTCAVYGGSFSGYYWSWIRQPPGKGLEWIGEIQQSGSTNYNPSLKSRVTISVDTSKNQFSLKLSSVTAADTSVYYCASGNWDHFFDYWGQGTLVTVSS VL: DIQMTQSPSSVSASVGDRVTITCRASQGISSWLAWYQHKPGKAPKLLIYATSSLQSGVTSRFSGSGSGTDFTLTISSLQPEDFATYYCQQAKSFPWTFGQGTKVEIK |
